From PubChem BioAssay AID1347422 (Sanford-Burnham Center for Chemical Genomics, 2020)
Over roughly 1,000 compounds, “thermal shift dTm” has its median near 0.19; the highest 2% begin near 1.7. Some of the results follow. Activity calls are given as the source filed them.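 Rule for the calls: active = mean rise in melting temperature of at least 1 degC over same-plate control wells; inactive = below that, where a call was filed.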

Amino acid sequences for entries named in this document (tags omitted). A change or cut given only in a name is not applied to a line headed by its entry.
UniProt O00391: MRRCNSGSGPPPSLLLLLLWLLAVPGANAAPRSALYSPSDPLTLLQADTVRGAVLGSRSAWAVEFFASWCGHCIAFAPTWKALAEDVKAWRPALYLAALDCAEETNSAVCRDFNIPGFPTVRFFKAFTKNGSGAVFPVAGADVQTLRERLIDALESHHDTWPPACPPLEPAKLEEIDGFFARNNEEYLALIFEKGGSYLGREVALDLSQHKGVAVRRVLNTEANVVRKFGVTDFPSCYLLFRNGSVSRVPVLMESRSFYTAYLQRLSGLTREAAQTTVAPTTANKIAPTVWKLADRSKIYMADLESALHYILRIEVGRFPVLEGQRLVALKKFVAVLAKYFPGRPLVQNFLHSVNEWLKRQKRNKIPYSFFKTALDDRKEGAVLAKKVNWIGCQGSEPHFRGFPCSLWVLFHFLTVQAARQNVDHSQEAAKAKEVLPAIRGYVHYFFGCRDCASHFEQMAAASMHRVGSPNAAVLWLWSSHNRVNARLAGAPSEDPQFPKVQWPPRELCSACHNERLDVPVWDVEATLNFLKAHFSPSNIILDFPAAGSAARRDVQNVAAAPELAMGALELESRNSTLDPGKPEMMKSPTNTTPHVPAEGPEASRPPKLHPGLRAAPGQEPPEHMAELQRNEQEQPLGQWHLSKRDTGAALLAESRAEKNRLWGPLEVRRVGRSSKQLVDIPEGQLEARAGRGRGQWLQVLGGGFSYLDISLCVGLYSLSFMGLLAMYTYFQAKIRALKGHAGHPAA

These compounds were tested against Sulfhydryl oxidase 1 (Homo sapiens) (UniProt O00391) (assay: ligand-induced melting shift of human QSOX1 – biophysical, protein thermal shift, single concentration, QSOX1 inhibitor project, confirmation (AID 1347422;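 note: dTm is compound Tm minus mean Tm of DMSO-only wells on that plate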)). Settings: recombinant hQSOX1 thermal shift, Sypro Orange, at 25 µM, stronger effect = higher value.
With `CC(C)C(=O)Nc1ccc(C(=O)Nc2ccc(O)cc2)cc1` the thermal shift dTm was 0.13 °C. Compound `CCN(CC)S(=O)(=O)c1ccc(OC)c(NC(=O)Nc2ccccc2C)c1` has a thermal shift dTm of 0.52 °C. In the case of `CC(=O)Nc1ccc(CN2Cc3cc(C)ccc3OC(c3ccsc3)C2)cc1` (centres undefined), the thermal shift dTm is reported as 0.28 °C. In the case of `CCNS(=O)(=O)c1ccc(NC(=O)Nc2cccc(OC)c2)cc1`, the thermal shift dTm is reported as active: 1.39 °C. `CCOc1ccccc1C1C(C#N)=C(N)Oc2cc(N(C)C)ccc21` (centres undefined) gave a thermal shift dTm of 0.29 °C. Compound `OCc1ccc(OCc2ccc(Cl)c(Cl)c2)c(Br)c1` has a thermal shift dTm of 0.77 °C. `NS(=O)(=O)c1ccc(NC(=S)Nc2ccc(OCc3ccccc3)cc2)cc1` was tested, and the thermal shift dTm was inactive: -0.07 °C. In the case of `COc1ccc(NC(=O)CSC2CC(=O)N(c3ccccc3)C2=O)cc1Cl` (centres undefined), the thermal shift dTm is reported as 0.3 °C. `Oc1ccc(CNc2cccc(Br)c2)c2cccnc12` gave a thermal shift dTm of 0.02 °C. For `CCC1=[N+](c2nc(-c3ccc([N+](=O)[O-])cc3)nc3ccccc23)CCCC1`, the thermal shift dTm was 0.02 °C. With `COc1cc(/C=C2\N=C(SC)SC2=O)ccc1OCc1ccccc1` the thermal shift dTm was 0.62 °C. Work on `NC(=O)c1c(NC(=O)C#Cc2ccccc2)sc2c1CCC2` yielded a thermal shift dTm of 0.39 °C. For `Cc1ccc2nc(NC(=O)CC(C)c3ccccc3)sc2c1` (centres undefined), the thermal shift dTm was inactive: -0.03 °C. With `S=C(Nc1ccc2nc(-c3ccco3)c(-c3ccco3)nc2c1)N1CCOCC1` the thermal shift dTm was inactive: -0.22 °C. Work on `Cc1cc(=O)[nH]c(SCC(=O)Nc2ncc(Cc3cccc(Cl)c3Cl)s2)n1` yielded a thermal shift dTm of 0.11 °C. Compound `O=C(CN1C(=O)C2C3C=CC(C3)C2C1=O)Nc1ccc2c(c1)oc1ccccc12` (centres undefined) has a thermal shift dTm of 0.02 °C. `CC(=O)Nc1cccc(NC(=O)COc2ccc(C)cc2Br)c1` showed a thermal shift dTm of 0.24 °C. For `CC(=O)Nc1ccc(C(=O)CSc2cc(C)c3cccc(C)c3n2)cc1`, the thermal shift dTm was inactive: -0.04 °C. With `O=C(/C=C/c1ccco1)Nc1ccc(Br)c(Cl)c1` the thermal shift dTm was 0.02 °C. With `Cc1cc(C(=O)OCC(=O)Nc2cccc(C(F)(F)F)c2)c2ccccc2n1` the thermal shift dTm was inactive: -0.18 °C. For `Clc1ccc(-c2nc(Nc3ccc4c(c3)OCCO4)c3ccccc3n2)cc1`, the thermal shift dTm was 0.11 °C. In the case of `CC(=O)Oc1ccc(-c2csc(Nc3ccccc3F)n2)cc1`, the thermal shift dTm is reported as 0.35 °C. With `COc1ccc(C)cc1NC(=O)Nc1ccc(OC(F)F)c(Cl)c1` the thermal shift dTm was inactive: -0.79 °C. In the case of `Cc1[nH]nc(-c2ccc(O)cc2O)c1-c1ccc(Br)cc1`, the thermal shift dTm is reported as 0.54 °C. With `Cc1cc(Cl)ccc1OCCCC(=O)Nc1ccc(C(N)=O)cc1` the thermal shift dTm was inactive: -0.23 °C. `Cc1cccc2cc3c(NC(=O)c4cccs4)nn(C)c3nc12` gave a thermal shift dTm of 0.24 °C. `O=S(=O)(c1ccc(NC(=S)Nc2ccc(F)c(Cl)c2)cc1)N1CCCC1` gave a thermal shift dTm of 0.86 °C. Work on `CCc1ccc(-n2c(CCC(=O)O)ccc2-c2ccc(Br)cc2)cc1` yielded a thermal shift dTm of 0.2 °C. `c1ccc(CCNc2nc3ccccc3[nH]2)cc1` was tested, and the thermal shift dTm was inactive: -0.09 °C. In the case of `Cc1[nH]nc(-c2ccc(O)cc2O)c1-c1cnn(-c2ccccc2)c1`, the thermal shift dTm is reported as active: 1.63 °C. `COc1ccccc1-c1cn(S(=O)(=O)c2cc(Cl)sc2Cl)nc1N` was tested, and the thermal shift dTm was 0.1 °C. For `CCOC(=O)Nc1ccc(-n2ccc(C)n2)cc1`, the thermal shift dTm was inactive: -0.04 °C. `Cc1nc(-c2ccc(C(=O)Nc3ccc(F)cc3)cc2)cs1` was tested, and the thermal shift dTm was 0.15 °C. `Cc1ccc(C(=O)N/C(=C/c2ccc(-c3ccc(Cl)cc3Cl)o2)C(=O)NCCCO)cc1` gave a thermal shift dTm of 0.1 °C. `Nc1nc(-c2ccc(NC(=O)c3ccc(Cl)cc3)cc2)cs1` gave a thermal shift dTm of 0.53 °C. `Cc1ccc(-c2noc(CNC(=O)C(c3ccccc3)c3ccccc3)n2)cc1` showed a thermal shift dTm of 0.39 °C. Work on `COc1cccc(C2C(C#N)=C(N)Oc3c2ccc2ccccc32)c1OC` (centres undefined) yielded a thermal shift dTm of 0.15 °C. With `CCCN1C(=O)C(c2c[nH]c3ccccc23)(c2c[nH]c3ccccc23)c2ccccc21` the thermal shift dTm was 0.12 °C. Work on `COc1cccc(NC(=O)Nc2ccc(Cc3ccncc3)cc2)c1` yielded a thermal shift dTm of 0.38 °C. For `Cc1cc(O)c(-c2n[nH]c3c2C(c2ccc(Cl)cc2)N(Cc2cccnc2)C3=O)cc1C` (centres undefined), the thermal shift dTm was 0.07 °C. `NC(=O)c1ccc(-c2ccc3[nH]ccc3c2)nc1` showed a thermal shift dTm of 0.79 °C. `O=C(COc1ccc(Cl)cc1)NCCSCc1ccc(Cl)cc1Cl` was tested, and the thermal shift dTm was 0.06 °C. For `CCc1ccc(C(=O)Nc2nc3c(s2)CCCC3)s1`, the thermal shift dTm was inactive: -0.05 °C. `CCOc1ccc(NC(=O)Nc2nnc(SCCOc3ccccc3)s2)cc1` gave a thermal shift dTm of 0.48 °C. For `CC(=O)Oc1cccc2ccc(/C=C/c3ccc(F)cc3)nc12`, the thermal shift dTm was inactive: -0.12 °C. For `Cc1[nH]nc(-c2ccc(O)c(O)c2O)c1Oc1ccc(F)cc1`, the thermal shift dTm was inactive: -5.32 °C. `CN(c1ccccc1)S(=O)(=O)c1ccc2[nH]c(=O)oc2c1` was tested, and the thermal shift dTm was 0.95 °C. `CC(=O)Nc1ccc(NC(=O)Nc2ccc(F)cc2F)cc1` was tested, and the thermal shift dTm was 0.47 °C. With `CC(=O)Nc1cccc(Nc2cc(-c3ccccc3)nc(C)n2)c1` the thermal shift dTm was active: 1.49 °C. Compound `Cc1ccccc1-c1nnc(NC(=O)NC(C)Cc2cccs2)s1` (centres undefined) has a thermal shift dTm of 0.28 °C. Compound `CCc1ccc(NC(=O)COc2ccccc2F)cc1` has a thermal shift dTm of 0.24 °C. Compound `CCN(Cc1nc(-c2ccc(OC)cc2)no1)C(=O)Nc1cccc(Cl)c1` has a thermal shift dTm of 0.23 °C. `C=CCN1C(=O)c2[nH]nc(-c3cc(C)c(C)cc3O)c2C1c1cccc(Br)c1` (centres undefined) was tested, and the thermal shift dTm was active: 1 °C. For `COc1cccc(CN2c3cccc4cccc(c34)S2(=O)=O)c1`, the thermal shift dTm was 0.07 °C. `O=C(CSc1ncnc2sc(-c3ccccc3)cc12)N1CCCCC1` gave a thermal shift dTm of 0.25 °C. `Cc1ccc(NC(=O)Nc2nnc(SCCOc3ccccc3)s2)cc1` showed a thermal shift dTm of 0.95 °C. For `O=c1c2ccccc2ncn1CCCOc1ccc2ccccc2c1Br`, the thermal shift dTm was 0.11 °C. `O=C(Nc1ccccc1-c1ccccc1)c1ccc(NS(=O)(=O)c2ccccc2)cc1` showed a thermal shift dTm of 0.75 °C. `O=C(NCCOc1ccccc1Cl)c1ccc(I)cc1` was tested, and the thermal shift dTm was inactive: -0.09 °C. Compound `O=C(NCc1nc(-c2ccccc2)no1)c1ccc2ccccc2c1` has a thermal shift dTm of 0.02 °C. `O/N=C/c1ccc(OCc2ccccc2F)c(Br)c1` gave a thermal shift dTm of 0.11 °C. `NC(N)=Nc1nc(-c2ccc3ccccc3c2)cs1` was tested, and the thermal shift dTm was 0.23 °C. `O=c1[nH]c(SCc2ccc(Cl)c(Cl)c2)nc2ccccc12` showed a thermal shift dTm of 0.11 °C. `CCCC(=O)Nc1cccc(NC(=O)c2ccc(CC)cc2)c1` showed a thermal shift dTm of 0.18 °C. `Cc1ccc(CCC(=O)Nc2ccc(I)cc2)o1` was tested, and the thermal shift dTm was inactive: -0.03 °C. For `O=C(NCCc1nc2ccccc2[nH]1)c1nc(-c2cccs2)no1`, the thermal shift dTm was 0.15 °C. With `O=C(/C=C/c1cccs1)NCCNC(=O)/C=C/c1cccs1` the thermal shift dTm was 0.44 °C. Compound `O=C(NCc1ccco1)c1cc2cc(Cl)cc(Cl)c2oc1=O` has a thermal shift dTm of 0.68 °C. `CC(=O)Oc1cccc(/C=C/c2ccc3ccccc3n2)c1Cl` showed a thermal shift dTm of 0.11 °C. Compound `CCc1ccc(-c2cn3ccc(C)cc3n2)cc1` has a thermal shift dTm of 0.53 °C. With `CCOC(=O)c1ccc(NC(=O)Nc2ccc(OC)c(OC)c2)cc1` the thermal shift dTm was inactive: -22.2 °C. `Cc1ccc(NC(=O)c2ccc3c(c2)OCO3)cc1F` was tested, and the thermal shift dTm was active: 1.63 °C. Work on `COc1ccc(-c2nnc(Nc3ccc(O)cc3)c3ccccc23)cc1` yielded a thermal shift dTm of 0.15 °C. `Clc1cccc(-c2cn3ccccc3n2)c1` showed a thermal shift dTm of 0.71 °C. Work on `OCc1ccc(OCc2ccc(Br)cc2)c(Cl)c1` yielded a thermal shift dTm of 0.02 °C. For `Nc1ccc(-c2cccc(-c3ccn[nH]3)c2)c(F)c1`, the thermal shift dTm was 0.23 °C. For `c1ccc(-c2onc3ccc(-c4nnc(-c5ccco5)o4)cc23)cc1`, the thermal shift dTm was active: 1.37 °C. For `CCC(=O)Nc1ccc(C(=O)NCCc2ccc(F)cc2)cc1`, the thermal shift dTm was 0.02 °C. `Cc1ccc(/C=C/C(=O)NCC(C)NC(=O)/C=C/c2ccc(C)cc2)cc1` (centres undefined) showed a thermal shift dTm of 0.45 °C. For `CCCc1cc(C(=O)Nc2ccc3[nH]ncc3c2)cs1`, the thermal shift dTm was active: 2.61 °C. `Cn1ncc(C#N)c1NC(=O)c1cc2nc(-c3ccccc3)cc(-c3ccccc3)n2n1` was tested, and the thermal shift dTm was inactive: -0.18 °C. For `NC(=O)c1ccc(NC(=O)C2CC2(c2ccccc2)c2ccccc2)cc1` (centres undefined), the thermal shift dTm was 0.19 °C. `CNS(=O)(=O)c1ccc(NC(=O)c2ccc(Cl)s2)cc1` was tested, and the thermal shift dTm was active: 1.11 °C. With `COc1ccc(NC(=O)NCCc2ccc(F)cc2)cc1` the thermal shift dTm was inactive: -6.32 °C. With `COc1cc2c(cc1NC(=O)CSc1nc(N)cc(=O)[nH]1)oc1ccccc12` the thermal shift dTm was 0.13 °C. Compound `Cc1ccc(NS(=O)(=O)c2ccc3c(c2)CC(C)(C)OC3)cc1` has a thermal shift dTm of 0.23 °C. `CCC(=O)Nc1ccc(NC(=O)c2ccc(CC)cc2)cc1` was tested, and the thermal shift dTm was 0.23 °C. `CCSC1=N/C(=C\c2ccc(-c3ccccc3Cl)o2)C(=O)S1` showed a thermal shift dTm of 0.9 °C. `CCc1cc(-c2n[nH]c(C)c2Oc2ccc(F)cc2)c(O)cc1O` gave a thermal shift dTm of 0.02 °C. For `O=C(Nc1cccc(F)c1)N1CCN(c2cccc(C(F)(F)F)c2)CC1`, the thermal shift dTm was 0.66 °C. For `Cc1sc(NC(=O)C#Cc2ccccc2)c(C(N)=O)c1C`, the thermal shift dTm was 0.33 °C. In the case of `O=C(Cc1cccs1)Nc1cccc(C(=O)Nc2nccs2)c1`, the thermal shift dTm is reported as inactive: -0.01 °C. With `O=C(Nc1ccc2c(c1)OCO2)Nc1ccc(Cl)c(C(F)(F)F)c1` the thermal shift dTm was 0.28 °C. With `O=C(Nc1ccc2[nH]ncc2c1)c1ccc(Br)o1` the thermal shift dTm was 0.97 °C. `Cc1ccc2c(C)c(C(=O)Nc3ccc(S(=O)(=O)Nc4onc(C)c4C)cc3)oc2c1` was tested, and the thermal shift dTm was active: 1.03 °C. `CC(C)c1cc(NCc2cccnc2)n2ncc(-c3ccccc3)c2n1` was tested, and the thermal shift dTm was 0.37 °C. Compound `CC1=C(C)CC(C(=O)Nc2nc(-c3ccc(CC(C)C)cc3)cs2)C(C(=O)O)C1` (centres undefined) has a thermal shift dTm of 0.02 °C. Work on `O=C(Nc1ccccc1)Oc1ccc(Cl)cc1Br` yielded a thermal shift dTm of 0.19 °C. For `C=CCOc1cccc(/C=C2\N=C(SCc3ccccc3)SC2=O)c1`, the thermal shift dTm was 0.4 °C. Work on `Cc1ccc(S(=O)(=O)Nc2cc(Cl)c(O)c(C)c2C)cc1` yielded a thermal shift dTm of 0.34 °C. For `COc1ccc2c(Cl)c(C(=O)NCCc3ccc(S(N)(=O)=O)cc3)sc2c1`, the thermal shift dTm was inactive: 0 °C. In the case of `CCCNC(=O)Nc1cc2oc3ccccc3c2cc1OC`, the thermal shift dTm is reported as 0.28 °C. Compound `COc1cccc(NC(=S)NCC(C)(C)CNC(=S)Nc2cccc(OC)c2)c1` has a thermal shift dTm of 0.21 °C. For `Cc1cc(C)cc(NC(=S)NCC(O)c2ccccc2)c1` (centres undefined), the thermal shift dTm was inactive: -0.03 °C.
